Test results taken from PubChem BioAssay AID2685 (National Center for Advancing Translational Sciences (NCATS), 2010).
The other results are listed elsewhere or left out. Further columns of the screen follow, without active or inactive calls. The list favours compounds with an active or inconclusive main result. Words in brackets tell the shape of the fitted curve; partial curves, single points and poor fits give uncertain potencies.

Assay: qHTS Assay for Lipid Storage Modulators in Drosophila S3 Cells;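 for cell number change: cells counted by Cell Tracker Red CMTPX staining in the red channel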
Details: BODIPY lipid droplet fluorescence, 18-24 h; for cell number change: measured here: cell count max response, cells fed with added oleic acid
Procedure, shortened: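 Laser-scanning cytometry quantifies lipid droplet accumulation (500–530 nm total intensity; droplet/cell object ratio) in oleic acid-fed (400 uM added) Drosophila S3 cells treated with a concentration series. 20 uM Triacsin C defined 100% inhibition.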

[1] = measured here: lipid fluorescence (Fed channel) AC50, cells fed with added oleic acid
[2] = measured here: cell number channel AC50, cells fed with added oleic acid

Row | SMILES | cell number change | AC50 [1] | AC50 [2]
1 | COc1ccc(OCCc2nnc(N)s2)cc1 | -17% | 29.1 µM [falling, single point] | –
2 | COc1ccc(NC(=O)N2CCCC2C(=O)NCCc2ccccc2)cc1 (centres undefined) | 14.5% | 6.51 µM [falling, single point] | –
3 | COCCNC(=O)C(c1cccs1)N(C(=O)Cn1nnc2ccccc21)c1ccc2c(c1)OCO2 (centres undefined) | -10.1% | – | –
4 | Cc1cc(C(=O)CSc2nnc(-c3ccc(F)cc3)o2)c(C)n1CC1CCCO1 (centres undefined) | -28.2% | 29.1 µM [falling, single point] | –
5 | O=C/C(=C\Nc1ccc(S(=O)(=O)CCO)cc1)c1nc2cc(Cl)ccc2o1 | 4.15% | – | –
6 | Nn1c(Nc2ccccc2)nc2sc3c(c2c1=O)CCC3 | -26.1% | 0.164 µM [rising, full curve, poor fit] | –
7 | CCCNC(=O)C1CCN(S(=O)(=O)c2ccc3[nH]c(=O)ccc3c2)CC1 | 0.288% | 1.84 µM [rising, partial curve] | –
8 | CCC(C)(C)NC(=O)C(c1cccn1C)N(Cc1ccc(OC)cc1)C(=O)Cn1nnc2ccccc21 (centres undefined) | -34.5% | 8.2 µM [falling, partial curve] | 8.2 µM [falling, partial curve]
9 | CC(C)=C1C2CCC1C1C(=O)N(c3nc(-c4ccc(C(C)C)cc4)c(C)s3)C(=O)C21 (centres undefined) | -25.2% | 23.1 µM [falling, single point] | –
10 | CC/C=C\C/C=C\C/C=C\CCCCCCCC(=O)O | -31.4% | – | 29.1 µM [falling, single point]
11 | Cc1cccc(CSc2nnc(CCCCCNC(=O)OC(C)(C)C)o2)c1 | 16.6% | 29.1 µM [rising, single point] | –
12 | CCc1ccc(NCc2nc3ccccc3c(=O)[nH]2)cc1 | 47.5% | 3.66 µM [rising, single point] | 5.8 µM [rising, full curve]
13 | COc1ccc(OC)c(CNS(=O)(=O)c2cn(C)cn2)c1 | -16.7% | 29.1 µM [rising, single point] | –
14 | CCc1cccc(NC(=O)COc2ccccc2)c1 | – | – | 3.26 µM [falling, partial curve]
15 | COc1ccccc1NC(=O)N1CCN(C)CC1 | 39.4% | – | 32.6 µM [rising, single point]
16 | CCN(CC)C(=O)c1ccc(-c2nnc(OC)c3ccccc23)cc1 | 22.9% | 3.66 µM [rising, full curve] | 1.84 µM [rising, partial curve, poor fit]
17 | O=S(=O)(c1c(Cl)sc(Cl)c1Br)N1CCCC1 | -50.3% | – | –
18 | O=[N+]([O-])c1ccccc1NC1CCN(Cc2ccccc2)CC1 | -2.33% | 0.164 µM [falling, full curve, poor fit] | –
19 | O=[N+]([O-])c1cc(-c2ncccn2)c([N+](=O)[O-])s1 | -80% | 20.6 µM [falling, single point] | 25.9 µM [falling, single point]
20 | COc1ccc(OC)c(/C=N/NC(=O)Cn2ccnc2C)c1 | 28.6% | 16.4 µM [rising, partial curve, poor fit] | –

Row | SMILES | cell number change | AC50 [1] | AC50 [2]
21 | CNc1c(NS(=O)(=O)c2ccc(C(C)(C)C)cc2)c(=O)oc2ccccc12 | 26.5% | 6.51 µM [rising, partial curve, poor fit] | –
22 | NS(=O)(=O)c1cccc(NC(=O)CCSc2ccc(Cl)cc2)c1 | -100% | 0.13 µM [falling, full curve, poor fit] | 29.1 µM [falling, single point]
23 | CCOc1cc(CN2CCN(C(=O)CC(C)C)CC2)ccc1OC | 39% | – | 32.6 µM [rising, single point]
24 | Clc1cccc(CSc2nnc(-c3cccnc3)n2Cc2ccco2)c1 | -4.93% | 2.91 µM [rising, full curve] | –
25 | Cc1cc(C)c2nc(-c3ccccn3)cc(C(=O)Nn3cnnc3)c2c1 | -12% | 0.146 µM [falling, full curve, poor fit] | –
26 | COc1cccc(C(=O)Nc2cccc(-c3ccccc3)c2)c1 | – | 1.3 µM [falling, full curve] | –
27 | O=C(COc1ccc(Br)cc1)N/N=C1/SCC(=O)N1Cc1ccccc1 | -2.46% | 11.6 µM [rising, partial curve, poor fit] | –
28 | CC1CCCCN1C(=O)CCNS(=O)(=O)c1ccc2c(c1)c(=O)n(C)c(=O)n2C (centres undefined) | -24.5% | 0.82 µM [falling, full curve] | 1.16 µM [falling, full curve, poor fit]
29 | Cc1ccc(C(=O)Cc2ccccc2)o1 | 35.5% | 23.1 µM [rising, single point] | 29.1 µM [rising, single point]
30 | Cc1ccc(Cn2c(SCCN3CCCCC3)nc3c2c(=O)n(C)c(=O)n3C)cc1 | -15.7% | 20.6 µM [rising, single point] | 0.146 µM [falling, full curve, poor fit]
31 | CC(NC(=O)CN1C(=O)NC2(CCc3ccccc32)C1=O)c1ccccc1 (centres undefined) | -6.01% | 20.6 µM [rising, single point] | –
32 | CCS(=O)(=O)N(CC(=O)Nc1cccc2ccccc12)c1ccc(OC)cc1 | -14.5% | 0.092 µM [falling, full curve, poor fit] | –
33 | CN(C)C(CNC(=O)CNC(=O)Cc1cccc2ccccc12)c1ccccc1 (centres undefined) | 0.952% | – | –
34 | Cn1cc(-c2ccccc2C(N)=O)c(=O)c2cc(Cl)ccc21 | 13.4% | 32.6 µM [rising, single point] | –
35 | COc1cc(OC)c(OC)cc1/C=N/N(C)c1ccccc1 | 5.9% | 2.59 µM [rising, partial curve] | –
36 | COc1ccc(OC)c2c1C(=O)C(Cl)=C(Cl)C2=O | -64.2% | 3.66 µM [falling, partial curve] | 18.4 µM [falling, partial curve, poor fit]
37 | O=C(COC(=O)CN1C(=O)C2CCCCC2C1=O)NNC(=O)c1ccc(Cl)cc1 (centres undefined) | 25% | – | 7.31 µM [falling, single point]
38 | Cc1ccc(NC(=O)CN2CCCCCC2)cc1[N+](=O)[O-] | 24.3% | 2.06 µM [rising, partial curve] | –
39 | Cc1ccc(S(=O)(=O)Nc2ccccc2/C=N/c2nc3ccccc3n2C(C)C)cc1 | -24.1% | – | –
40 | COc1ccc(C2C(C(C)=O)=C(O)C(=O)N2c2ccc(Br)cc2)cc1 (centres undefined) | 15.1% | 6.51 µM [rising, single point] | –

Row | SMILES | cell number change | AC50 [1] | AC50 [2]
41 | Cc1oc(-c2ccc(Cl)cc2)nc1CS(=O)CC(=O)NCCCN(C)C1CCCCC1 (centres undefined) | -98.6% | 0.00461 µM [falling, full curve, poor fit] | 9.2 µM [falling, partial curve]
42 | COc1ccc(NS(=O)(=O)c2ccc(NC(=S)NC(=O)c3cccnc3)cc2)nn1 | -27.3% | 0.259 µM [falling, full curve] | 0.461 µM [falling, full curve, poor fit]
43 | O=C1CN(C(=O)c2ccccc2F)C(c2ccc(F)cc2)c2cc(F)ccc2N1 (centres undefined) | 0.826% | 16.4 µM [rising, partial curve] | –
44 | COCc1cc(C)nc2sc(C(=O)Nc3ccccc3C)c(N)c12 | -14.4% | – | –
45 | O=c1c(Cl)c(Cl)cnn1Cc1nnc(-c2ccc(Cl)cc2)o1 | -24.3% | 11.6 µM [falling, partial curve] | –
46 | O=C(Nc1ccn(Cc2c(F)c(F)c(F)c(F)c2F)n1)c1cccc(Cn2cc([N+](=O)[O-])cn2)c1 | -0.527% | – | –
47 | Cc1cc(C)c(S(=O)(=O)NCCc2ccncc2)c(C)c1 | 16.3% | 2.59 µM [rising, full curve, poor fit] | –
48 | COc1cccc(C(=O)N/N=C/C(Br)=C/c2ccccc2)c1 | -1.56% | 29.1 µM [falling, partial curve, poor fit] | –
49 | O=C(O)c1cc(S(=O)(=O)NCc2ccco2)c(Cl)cc1Cl | 14% | 2.91 µM [rising, single point] | –
50 | CC(=O)C(C)Oc1ccc(Cc2ncc(C(F)(F)F)cc2Cl)cc1 (centres undefined) | -4.78% | – | –
51 | C[C@H](NC(=O)c1nc[nH]c1C(=O)NCc1ccccc1)c1ccccc1 | -30.8% | – | 11.6 µM [falling, single point]
52 | Cc1ccc(S(=O)(=O)Nc2c(C)n(C)n(-c3ccccc3)c2=O)c(C)c1 | -9.85% | 0.651 µM [rising, full curve] | –
53 | CCSC1(SCC)N=C(N)C2(C#N)C(c3ccc(OC)c(OC)c3OC)C12C#N (centres undefined) | – | 0.146 µM [rising, full curve] | –
54 | Cc1ccccc1OCC(=O)Nc1ccc(N2CCN(C(=O)C(C)C)CC2)c(Cl)c1 | -27.5% | – | –
55 | COc1ccc(C2(C(=O)Nc3ccc(OC)cc3OC)CCCC2)cc1 | -17.8% | 29.1 µM [rising, single point] | –
56 | COc1cc(NC(=O)CSc2nc3[nH]c(=O)cc(O)c3s2)cc(OC)c1OC | -29.9% | 0.82 µM [falling, partial curve, poor fit] | –
57 | CSCCC(NC(=O)C1CC1)c1nc2ccccc2[nH]1 (centres undefined) | 1.07% | 0.058 µM [falling, full curve, poor fit] | –
58 | CC12CCC(=O)N1C(C(=O)Nc1cccc(S(=O)(=O)N3CCCCCC3)c1)CS2 (centres undefined) | -44.7% | – | 13 µM [falling, partial curve, poor fit]
59 | CCOc1ccc(-c2ccc(SCc3ccccn3)nn2)cc1 | 40.4% | – | 29.1 µM [rising, single point]
60 | COCc1cc(N2CCN(c3ccccc3F)CC2)nc(-c2ccccc2)n1 | -68.9% | – | 29.1 µM [falling, single point]

3 compounds already listed, arranged by heavy-atom count, smallest number first:
Row | SMILES | cell number change | AC50 [1] | AC50 [2]
49 | O=C(O)c1cc(S(=O)(=O)NCc2ccco2)c(Cl)cc1Cl | 14% | 2.91 µM [rising, single point] | –
59 | CCOc1ccc(-c2ccc(SCc3ccccn3)nn2)cc1 | 40.4% | – | 29.1 µM [rising, single point]
56 | COc1cc(NC(=O)CSc2nc3[nH]c(=O)cc(O)c3s2)cc(OC)c1OC | -29.9% | 0.82 µM [falling, partial curve, poor fit] | –
